In PMC11589570, “Critical assessment of LC3/GABARAP ligands used for degrader development and ligandability of LC3/GABARAP binding pockets” (Nature Communications, 2024):
Where “and” joins values, the source holds several entries; their conditions need not be identical. Equal values may be shown once. Further values from the same series stand in other lists.

Test system: RPE1 cells
Assay: Cell growth assay (IncuCyte confluence over 72 h)
Format: cell-based
Procedure, shortened: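 Phase confluence (% area covered by cells) imaged every 2 h for 72 h after compound addition; cells in DMEM/10% FBS, seeded 24 h before treatment. Controls were 0.1% DMSO, 250 nM Torin1 and 200 ng/mL Bafilomycin (final). Each point averages three wells.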

## O=c1cc(-c2ccccc2)c2c(O)cc(O)cc2o1 [compound 2]
3 uM, 20 h, listed as AN2
  RPE1 cell growth: 52 and 35 and 38
3 uM, 22 h, listed as AN2
  RPE1 cell growth: 55 and 39
3 uM, 24 h, listed as AN2
  RPE1 cell growth: 61 and 43 and 41
3 uM, 26 h, listed as AN2
  RPE1 cell growth: 64 and 44 and 45
3 uM, 28 h, listed as AN2
  RPE1 cell growth: 69 and 49 and 47
3 uM, 30 h, listed as AN2
  RPE1 cell growth: 75 and 52 and 50
3 uM, 32 h, listed as AN2
  RPE1 cell growth: 78 and 56 and 54
3 uM, 34 h, listed as AN2
  RPE1 cell growth: 82 and 59 and 60
3 uM, 36 h, listed as AN2
  RPE1 cell growth: 85 and 64 and 63
3 uM, 38 h, listed as AN2
  RPE1 cell growth: 87 and 68 and 66
3 uM, 40 h, listed as AN2
  RPE1 cell growth: 91 and 72 and 71
3 uM, 42 h, listed as AN2
  RPE1 cell growth: 93 and 76
3 uM, 44 h, listed as AN2
  RPE1 cell growth: 96 and 81 and 79
3 uM, 46 h, listed as AN2
  RPE1 cell growth: 97 and 86 and 83
3 uM, 48 h, listed as AN2
  RPE1 cell growth: 99 and 90 and 88
3 uM, 50 h, listed as AN2
  RPE1 cell growth: 99 and 92
3 uM, 52 h, listed as AN2
  RPE1 cell growth: 100 and 96 and 94
3 uM, 54 h, listed as AN2
  RPE1 cell growth: 100 and 97
3 uM, 56 h, listed as AN2
  RPE1 cell growth: 100 and 99 and 98
3 uM, 58 h, listed as AN2
  RPE1 cell growth: 100 and 99
3 uM, 60 h
  RPE1 cell growth: 100
3 uM, 62 h
  RPE1 cell growth: 100
3 uM, 64 h
  RPE1 cell growth: 100
3 uM, 66 h
  RPE1 cell growth: 100
3 uM, 68 h
  RPE1 cell growth: 100
3 uM, 70 h
  RPE1 cell growth: 100
3 uM, 72 h
  RPE1 cell growth: 100
5 uM, 12 h, listed as AN2
  RPE1 cell growth: 42 and 27 and 35
5 uM, 14 h, listed as AN2
  RPE1 cell growth: 46 and 30 and 38
5 uM, 16 h, listed as AN2
  RPE1 cell growth: 48 and 32 and 40
5 uM, 18 h, listed as AN2
  RPE1 cell growth: 50 and 33 and 42
5 uM, 20 h, listed as AN2
  RPE1 cell growth: 50 and 36 and 44
5 uM, 22 h, listed as AN2
  RPE1 cell growth: 53 and 41 and 46
5 uM, 24 h, listed as AN2
  RPE1 cell growth: 61 and 42 and 47
5 uM, 26 h, listed as AN2
  RPE1 cell growth: 65 and 44 and 51
5 uM, 28 h, listed as AN2
  RPE1 cell growth: 69 and 48 and 53
5 uM, 30 h, listed as AN2
  RPE1 cell growth: 74 and 54 and 57
5 uM, 32 h, listed as AN2
  RPE1 cell growth: 77 and 57 and 60
5 uM, 34 h, listed as AN2
  RPE1 cell growth: 83 and 60 and 64
5 uM, 36 h, listed as AN2
  RPE1 cell growth: 85 and 66 and 69
5 uM, 38 h, listed as AN2
  RPE1 cell growth: 87 and 71 and 73
5 uM, 40 h, listed as AN2
  RPE1 cell growth: 91 and 75 and 76
5 uM, 42 h, listed as AN2
  RPE1 cell growth: 93 and 78 and 81
5 uM, 44 h, listed as AN2
  RPE1 cell growth: 96 and 82 and 84
5 uM, 46 h, listed as AN2
  RPE1 cell growth: 97 and 86 and 88
5 uM, 48 h, listed as AN2
  RPE1 cell growth: 99 and 90 and 91
5 uM, 50 h, listed as AN2
  RPE1 cell growth: 99 and 93 and 94
5 uM, 52 h, listed as AN2
  RPE1 cell growth: 99 and 96
5 uM, 54 h, listed as AN2
  RPE1 cell growth: 100 and 98 and 97
5 uM, 56 h, listed as AN2
  RPE1 cell growth: 100 and 99 and 98
5 uM, 58 h, listed as AN2
  RPE1 cell growth: 100 and 99
5 uM, 60 h, listed as AN2
  RPE1 cell growth: 100 and 99
5 uM, 62 h
  RPE1 cell growth: 100
5 uM, 64 h
  RPE1 cell growth: 100
5 uM, 66 h
  RPE1 cell growth: 100
5 uM, 68 h
  RPE1 cell growth: 100
5 uM, 70 h
  RPE1 cell growth: 100
5 uM, 72 h
  RPE1 cell growth: 100
10 uM, 12 h, listed as AN2
  RPE1 cell growth: 45 and 31
10 uM, 14 h, listed as AN2
  RPE1 cell growth: 48 and 32 and 33
10 uM, 16 h, listed as AN2
  RPE1 cell growth: 51 and 34 and 35
10 uM, 18 h, listed as AN2
  RPE1 cell growth: 52 and 35 and 37
10 uM, 20 h, listed as AN2
  RPE1 cell growth: 52 and 38 and 40
10 uM, 22 h, listed as AN2
  RPE1 cell growth: 55 and 43 and 42
10 uM, 24 h, listed as AN2
  RPE1 cell growth: 61 and 44 and 43
10 uM, 26 h, listed as AN2
  RPE1 cell growth: 65 and 45 and 47
10 uM, 28 h, listed as AN2
  RPE1 cell growth: 70 and 48 and 49
10 uM, 30 h, listed as AN2
  RPE1 cell growth: 75 and 53 and 54
10 uM, 32 h, listed as AN2
  RPE1 cell growth: 80 and 56 and 58
10 uM, 34 h, listed as AN2
  RPE1 cell growth: 84 and 57 and 61
10 uM, 36 h, listed as AN2
  RPE1 cell growth: 87 and 63 and 65
10 uM, 38 h, listed as AN2
  RPE1 cell growth: 89 and 66 and 68
10 uM, 40 h, listed as AN2
  RPE1 cell growth: 91 and 72 and 73
10 uM, 42 h, listed as AN2
  RPE1 cell growth: 94 and 75 and 78
10 uM, 44 h, listed as AN2
  RPE1 cell growth: 96 and 79 and 82
10 uM, 46 h, listed as AN2
  RPE1 cell growth: 98 and 83 and 85
10 uM, 48 h, listed as AN2
  RPE1 cell growth: 99 and 88 and 89
10 uM, 50 h, listed as AN2
  RPE1 cell growth: 100 and 91 and 92
10 uM, 52 h, listed as AN2
  RPE1 cell growth: 100 and 94
10 uM, 54 h, listed as AN2
  RPE1 cell growth: 100 and 95 and 96
10 uM, 56 h, listed as AN2
  RPE1 cell growth: 100 and 97 and 98
10 uM, 58 h, listed as AN2
  RPE1 cell growth: 100 and 99
10 uM, 60 h, listed as AN2
  RPE1 cell growth: 100 and 99
10 uM, 62 h
  RPE1 cell growth: 100
10 uM, 64 h
  RPE1 cell growth: 100
10 uM, 66 h
  RPE1 cell growth: 100
10 uM, 68 h
  RPE1 cell growth: 100
10 uM, 70 h
  RPE1 cell growth: 100
10 uM, 72 h
  RPE1 cell growth: 100
